Source: publication PMC4947160
Results are given in words; binding and its absence hold for the method and conditions named. Binding seen in cells or lysates may run through a third protein. Some results given as binding are weak or reduced against the parent protein; the word gives no strength.

By UniProt entry, the sequences of proteins in these tests, tags left out.
UniProt P46414: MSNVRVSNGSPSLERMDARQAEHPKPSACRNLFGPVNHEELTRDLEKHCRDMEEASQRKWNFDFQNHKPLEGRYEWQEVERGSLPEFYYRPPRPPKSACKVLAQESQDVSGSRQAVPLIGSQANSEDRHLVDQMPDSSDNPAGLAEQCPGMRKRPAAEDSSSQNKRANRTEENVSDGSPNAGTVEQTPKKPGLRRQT
UniProt P46527: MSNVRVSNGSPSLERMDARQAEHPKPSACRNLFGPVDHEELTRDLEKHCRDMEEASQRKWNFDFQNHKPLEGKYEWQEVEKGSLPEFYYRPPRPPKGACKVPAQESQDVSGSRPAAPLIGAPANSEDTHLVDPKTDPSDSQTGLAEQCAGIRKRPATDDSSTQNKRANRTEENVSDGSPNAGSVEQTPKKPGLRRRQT
UniProt Q9DBY1: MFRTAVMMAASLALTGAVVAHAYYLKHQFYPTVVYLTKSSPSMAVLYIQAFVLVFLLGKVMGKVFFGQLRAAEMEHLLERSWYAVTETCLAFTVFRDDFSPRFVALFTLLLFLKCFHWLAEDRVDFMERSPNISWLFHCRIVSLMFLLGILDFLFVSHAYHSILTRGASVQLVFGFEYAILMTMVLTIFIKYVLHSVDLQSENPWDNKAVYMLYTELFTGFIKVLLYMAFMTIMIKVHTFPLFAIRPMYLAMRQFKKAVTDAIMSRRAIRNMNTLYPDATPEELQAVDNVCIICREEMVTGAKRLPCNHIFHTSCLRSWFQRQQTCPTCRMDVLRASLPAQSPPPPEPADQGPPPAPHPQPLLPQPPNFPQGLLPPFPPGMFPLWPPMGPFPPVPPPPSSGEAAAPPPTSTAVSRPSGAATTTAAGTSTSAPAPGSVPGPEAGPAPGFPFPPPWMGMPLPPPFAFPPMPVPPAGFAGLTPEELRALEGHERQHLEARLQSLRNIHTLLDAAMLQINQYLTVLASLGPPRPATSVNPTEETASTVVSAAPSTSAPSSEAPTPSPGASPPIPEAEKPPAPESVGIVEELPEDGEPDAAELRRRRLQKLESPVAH
UniProt Q86TM6: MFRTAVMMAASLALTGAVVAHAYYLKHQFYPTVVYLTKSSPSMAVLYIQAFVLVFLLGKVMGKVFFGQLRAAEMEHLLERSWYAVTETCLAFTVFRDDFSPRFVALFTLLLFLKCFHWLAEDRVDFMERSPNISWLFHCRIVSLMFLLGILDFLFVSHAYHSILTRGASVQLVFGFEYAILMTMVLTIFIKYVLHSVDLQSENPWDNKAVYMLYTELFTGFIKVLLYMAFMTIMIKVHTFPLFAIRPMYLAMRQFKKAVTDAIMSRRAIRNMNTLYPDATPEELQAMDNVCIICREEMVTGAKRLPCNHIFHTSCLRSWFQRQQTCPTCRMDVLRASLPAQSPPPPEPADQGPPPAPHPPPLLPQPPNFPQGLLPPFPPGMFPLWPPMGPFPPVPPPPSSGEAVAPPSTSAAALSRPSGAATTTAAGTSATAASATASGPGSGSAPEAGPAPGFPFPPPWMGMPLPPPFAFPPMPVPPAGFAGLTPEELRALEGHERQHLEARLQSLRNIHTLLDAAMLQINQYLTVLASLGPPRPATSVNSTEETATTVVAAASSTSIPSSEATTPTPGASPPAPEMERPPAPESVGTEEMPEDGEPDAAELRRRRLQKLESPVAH

Key:
[1] = biological target: p27^kip1 (endogenous, mouse CD4 T cells) (mouse (endogenous in primary CD4 T cells)) (UniProt P46414); test: co-IP; endogenous proteins in mouse primary CD4 T cells, naive or stimulated with anti-CD3 or anti-CD3 plus anti-CD28 (30 min or 24 h); lysis in RIPA buffer; immunoprecipitation with anti-p27, immunoblotting with anti-Hrd1; p27^kip1 KO T cells as control
[2] = biological target: Flag-p27 (UniProt P46527); test: co-IP; HEK293 cells transiently transfected with Myc-Hrd1 (or its CA mutant) and Flag-p27; lysis in RIPA buffer; immunoprecipitation with anti-Flag, immunoblotting with anti-Myc

Row | binding [1] | binding [2] | Substance
1 | binds |  | Hrd1 (endogenous, mouse CD4 T cells) (from UniProt Q9DBY1 1-612) (enzyme)
2 |  | binds | Myc-tagged Hrd1 (from UniProt Q86TM6 1-617) (enzyme)
